Data from doi:10.1101/2021.06.29.450327.

Molecular target: T1, Meflin tagged with the hemagglutinin (HA) epitope, in mouse MSCs (UniProt Q6GU68)
T1 sequence: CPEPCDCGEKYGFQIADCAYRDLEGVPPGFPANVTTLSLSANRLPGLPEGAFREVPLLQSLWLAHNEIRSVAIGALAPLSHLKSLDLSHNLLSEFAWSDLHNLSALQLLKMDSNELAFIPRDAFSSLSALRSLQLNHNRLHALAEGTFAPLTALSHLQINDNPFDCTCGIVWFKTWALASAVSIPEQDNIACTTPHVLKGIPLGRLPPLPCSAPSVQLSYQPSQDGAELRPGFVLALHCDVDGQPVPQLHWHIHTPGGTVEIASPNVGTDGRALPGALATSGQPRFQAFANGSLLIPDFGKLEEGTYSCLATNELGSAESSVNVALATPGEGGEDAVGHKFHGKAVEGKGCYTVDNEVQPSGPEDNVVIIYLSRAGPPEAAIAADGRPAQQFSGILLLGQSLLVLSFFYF
Experiment: affinity purification with mass spectrometry

Lox (found in the HA-Meflin immunoprecipitate from mouse MSCs) (from UniProt P28301) (enzyme)
binding: binds

Results are given in words; binding and its absence hold for the method and conditions named. Binding seen in cells or lysates may run through a third protein. These calls come from enrichment with a bait or labelling near it, and not all partners need be listed. Tags and fused reporters may be left off the sequences shown.
